Binding data for 3 molecules are collected here from paper PMC3577914.

By UniProt entry, the sequences of proteins in these tests, tags left out.
UniProt O00401: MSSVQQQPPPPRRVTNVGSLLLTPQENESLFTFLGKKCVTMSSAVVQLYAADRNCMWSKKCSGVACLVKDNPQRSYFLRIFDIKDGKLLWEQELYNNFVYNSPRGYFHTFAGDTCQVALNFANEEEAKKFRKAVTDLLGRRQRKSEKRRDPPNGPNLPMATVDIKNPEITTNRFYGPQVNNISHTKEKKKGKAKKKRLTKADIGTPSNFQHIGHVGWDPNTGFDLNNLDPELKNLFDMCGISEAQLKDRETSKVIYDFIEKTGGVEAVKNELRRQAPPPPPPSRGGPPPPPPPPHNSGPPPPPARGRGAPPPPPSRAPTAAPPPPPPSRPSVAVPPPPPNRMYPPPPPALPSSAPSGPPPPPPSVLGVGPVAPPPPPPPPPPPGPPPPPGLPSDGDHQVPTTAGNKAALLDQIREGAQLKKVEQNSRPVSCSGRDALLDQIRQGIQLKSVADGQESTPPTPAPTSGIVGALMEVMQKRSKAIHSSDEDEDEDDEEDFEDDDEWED
UniProt P42768: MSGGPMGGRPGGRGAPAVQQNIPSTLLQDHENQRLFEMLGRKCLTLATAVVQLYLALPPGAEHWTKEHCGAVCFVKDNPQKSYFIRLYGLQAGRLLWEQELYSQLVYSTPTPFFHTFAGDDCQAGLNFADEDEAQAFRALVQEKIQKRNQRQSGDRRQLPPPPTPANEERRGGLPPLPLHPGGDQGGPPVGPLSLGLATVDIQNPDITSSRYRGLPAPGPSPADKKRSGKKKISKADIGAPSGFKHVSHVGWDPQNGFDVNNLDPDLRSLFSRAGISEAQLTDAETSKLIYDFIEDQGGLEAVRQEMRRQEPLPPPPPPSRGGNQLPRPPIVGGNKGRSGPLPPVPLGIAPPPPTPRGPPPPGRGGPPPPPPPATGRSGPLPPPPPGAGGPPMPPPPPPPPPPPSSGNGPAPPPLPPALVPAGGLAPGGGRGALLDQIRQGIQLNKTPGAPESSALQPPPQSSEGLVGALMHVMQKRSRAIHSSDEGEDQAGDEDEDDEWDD

Results are given in words; binding and its absence hold for the method and conditions named. In cells and extracts the contact can be indirect. Some binding calls cover weakened binding; strength is not graded here. For part of these data: Tags and fused reporters may be left off the sequences shown.

Holding throughout (assay): co-IP; HEK293 cells transfected with epitope-tagged proteins; lysis in 150 mM NaCl, 50 mM Tris pH 7.5, 1% Triton X-100 or RIPA buffer; anti-Myc antibody with Protein A/G agarose overnight at 4°C; Western blot
In general terms: A western blot detects proteins with antibodies after separation by electrophoresis.

The target of assay [1] is FCHSD1 (FCH domain and double SH3 domains containing protein 1), mouse, epitope-tagged full-length (mouse) (UniProt Q6PFY1).
A further assay deals with N-WASP, epitope-tagged (UniProt O00401).
Another assay concerns the target WASP, epitope-tagged (UniProt P42768).
The target in assay [2] is T1, FCHSD2 (FCH domain and double SH3 domains containing protein 2), mouse, epitope-tagged full-length (mouse) (UniProt Q3USJ8).
T1 sequence: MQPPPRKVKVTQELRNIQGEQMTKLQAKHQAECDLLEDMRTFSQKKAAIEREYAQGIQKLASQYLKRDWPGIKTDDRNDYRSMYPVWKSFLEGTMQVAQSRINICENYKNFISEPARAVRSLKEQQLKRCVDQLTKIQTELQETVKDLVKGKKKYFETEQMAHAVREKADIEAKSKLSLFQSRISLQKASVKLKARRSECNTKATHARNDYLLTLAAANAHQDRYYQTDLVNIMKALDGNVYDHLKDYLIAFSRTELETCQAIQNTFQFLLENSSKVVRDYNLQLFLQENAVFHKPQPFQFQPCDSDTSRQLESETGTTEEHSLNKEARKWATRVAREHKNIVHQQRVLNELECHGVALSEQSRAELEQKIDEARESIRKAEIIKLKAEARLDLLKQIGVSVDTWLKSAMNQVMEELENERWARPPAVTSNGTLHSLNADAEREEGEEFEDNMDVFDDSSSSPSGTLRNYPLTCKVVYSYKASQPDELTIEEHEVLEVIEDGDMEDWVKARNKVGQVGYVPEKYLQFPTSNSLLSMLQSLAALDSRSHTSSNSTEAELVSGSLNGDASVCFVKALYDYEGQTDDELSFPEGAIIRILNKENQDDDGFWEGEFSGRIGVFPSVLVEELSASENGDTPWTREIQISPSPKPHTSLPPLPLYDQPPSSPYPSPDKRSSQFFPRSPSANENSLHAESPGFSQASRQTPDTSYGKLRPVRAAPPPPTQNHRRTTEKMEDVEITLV

Assay [3] deals with Sorting Nexin 9 (SNX9), mouse, epitope-tagged (mouse) (UniProt Q91VH2).

B1: SNX9-SH3 (1–65aa) (domain or fragment, UniProt Q91VH2 1-65)
chain: MATKARVMYDFAAEPGNNELTVTEGEIITVTNPNVGGGWLEGKNNKGEQGLVPTDYVEILPNDGK
Regarding B1, the binding result in assay [1] is recorded as “binds”.

B2: FCHSD2 (FCH domain and double SH3 domains containing protein 2), mouse, epitope-tagged full-length (protein, UniProt Q3USJ8 1-740)
chain: MQPPPRKVKVTQELRNIQGEQMTKLQAKHQAECDLLEDMRTFSQKKAAIEREYAQGIQKLASQYLKRDWPGIKTDDRNDYRSMYPVWKSFLEGTMQVAQSRINICENYKNFISEPARAVRSLKEQQLKRCVDQLTKIQTELQETVKDLVKGKKKYFETEQMAHAVREKADIEAKSKLSLFQSRISLQKASVKLKARRSECNTKATHARNDYLLTLAAANAHQDRYYQTDLVNIMKALDGNVYDHLKDYLIAFSRTELETCQAIQNTFQFLLENSSKVVRDYNLQLFLQENAVFHKPQPFQFQPCDSDTSRQLESETGTTEEHSLNKEARKWATRVAREHKNIVHQQRVLNELECHGVALSEQSRAELEQKIDEARESIRKAEIIKLKAEARLDLLKQIGVSVDTWLKSAMNQVMEELENERWARPPAVTSNGTLHSLNADAEREEGEEFEDNMDVFDDSSSSPSGTLRNYPLTCKVVYSYKASQPDELTIEEHEVLEVIEDGDMEDWVKARNKVGQVGYVPEKYLQFPTSNSLLSMLQSLAALDSRSHTSSNSTEAELVSGSLNGDASVCFVKALYDYEGQTDDELSFPEGAIIRILNKENQDDDGFWEGEFSGRIGVFPSVLVEELSASENGDTPWTREIQISPSPKPHTSLPPLPLYDQPPSSPYPSPDKRSSQFFPRSPSANENSLHAESPGFSQASRQTPDTSYGKLRPVRAAPPPPTQNHRRTTEKMEDVEITLV
For the molecule B2, the binding entry is “binds” with N-WASP, epitope-tagged; “binds” in the assay with WASP, epitope-tagged; “binds” in assay [2]; “no binding” in assay [3].

B3: FCHSD1-F-BAR (1–315aa) (domain or fragment, UniProt Q6PFY1 1-315)
chain: MQPPPRKVKPAQEVKLRFLEQLSILQTRQQREADLLEDIRSYSKQRAAIEREYGQALQKLAGPFLKREGQRSGEADSRTVFGAWRCLLDATVAGGQTRLQASDRYRDLAGGTGRSAKEQVLRKGTESLQQAQAEVLQSVRELSRSRKLYGQRQRVWALAQEKAADVQARLNRSDHGIFHSRTSLQKLSTKLSAQSAQYSQQLRAARNEYLLNLVATNAHLAHYYQEELPALLKVLVSELSEYLRDPLTLLGHTELEAAEMILEHARHGGKATSQVNWEQDVKLFLQGPGVFSPTPPQQFQPAGADQVCGLEWGAG
With B3, the binding entry in assay [3] is “binds”.
